The record followed here is PubChem BioAssay AID330 (DTP/NCI, 2004).

In the assay the test system is P388 leukemia ip, CD2F1 mice, survival T/C. As to the kind of experiment: NCI In Vivo Anticancer Drug Screen. Data for tumor model P388 Leukemia (intraperitoneal) in CD2F1 (CDF1) mice. The settings on record: T/C endpoint: median survival time, higher T/C = longer survival.
Where [1] appears, read: dose: 200.0 mg/kg/injection, schedule: Q01DX009 (ip), vehicle: saline with Tween-80.
The mark [2] stands for this setting: dose: 32.0 mg/kg/injection, schedule: Q04DX003 (ip), vehicle: saline.

The list shows only some results of the screen, not a fair sample: it gathers tests that were run many times, whatever their T/C, doses with no T/C, and many T/C values between a quarter and a half above the control. Further doses and runs are listed elsewhere. T/C gives the treated animals as a percentage of the vehicle group. Some doses have a count of surviving animals in place of a T/C: the source files T/C as zero there, which appears to mark a toxic dose or a test without result, not a measured value. Some survivor counts are full or nearly so, which does not show that the dose was tolerated: the source hardly ever lists a survival T/C far under the control, and the zero likely stands for such cases as well. Counts of survivors are from the toxicity check (mostly the fifth day) where no day follows; animals may have died later. Schedules are NCI's codes, taken here to give the interval after Q, in days (D) or hours (H), and the number of doses after X. Some entries were tested several times; the results are listed from low to high. Where survival is the endpoint, the PubChem record calls one and a half times the control and up active, and a quarter to a half above the control has no call in these data; cut-offs in other NCI protocols can differ.

In the case of `C[Si](C)(OC(=O)N(CCCl)CCCl)O[Si](C)(C)OC(=O)N(CCCl)CCCl`, the survivor count (dose: 100.0 mg/kg/injection, schedule: Q01DX009 (ip), vehicle: saline with Tween-80) is reported as 6 of 6 and the survivor count under setting [1] is given as 6 of 6.
As for `O=C(Nc1ncc([N+](=O)[O-])s1)c1ccc([N+](=O)[O-])cc1`, the survivor count is, setting by setting: (dose: 50.0 mg/kg/injection, schedule: Q01DX009 (ip), vehicle: saline) 5 of 6; (dose: 100.0 mg/kg/injection, schedule: Q01DX009 (ip), vehicle: saline) 0 of 6; (dose: 200.0 mg/kg/injection, schedule: Q01DX009 (ip), vehicle: saline) 0 of 6.
As to `CC(C)=NO`, under “dose: 400.0 mg/kg/injection, schedule: Q01DX009 (ip), vehicle: saline”, the survivor count is on record as 0 of 6.
Regarding `CC(/C=N/Nc1ccccc1)=N\N=c1/scc(-c2ccc(Br)cc2)n1-c1ccc(Br)cc1`, the survivor count (dose: 400.0 mg/kg/injection, schedule: Q04DX002 (ip), vehicle: saline with Tween-80) is on record as 4 of 6.
Regarding `COc1cccc2c1C(=O)c1c(O)c3c(c(O)c1C2=O)C[C@@](O)(C(=O)COC(=O)c1cccnc1)C[C@@H]3OC1CC(N)C(O)C(C)O1` (stereo not given in full), the T/C runs as follows: (dose: 0.25 mg/kg/injection, schedule: Q01DX009 (ip), vehicle: water) 149 % of control; (dose: 2.0 mg/kg/injection, schedule: Q01DX009 (ip), vehicle: saline with Tween-80) 136 % of control; (dose: 2.0 mg/kg/injection, schedule: Q04DX003 (ip), vehicle: saline) 139 % of control; (dose: 4.0 mg/kg/injection, schedule: Q04DX003 (ip), vehicle: saline) 147 % of control; (dose: 8.0 mg/kg/injection, schedule: Q04DX003 (ip), vehicle: saline) 147 % of control; under setting [2], 134 % of control. Under “dose: 32.0 mg/kg/injection, schedule: Q04DX003 (ip), vehicle: water”, the T/C is 125 % of control. The survivor count was 4 of 6 under setting [2]; 4 of 6 (dose: 64.0 mg/kg/injection, schedule: Q04DX003 (ip), vehicle: saline); 0 of 6 and 6 of 6 (dose: 128.0 mg/kg/injection, schedule: Q04DX003 (ip), vehicle: saline).
Regarding `CC1=[N+]([O-])[N+]([O-])=C(c2ccccc2)C1=O`, the survivor count under setting [1] was 3 of 6.
On to `N#CC(OC(=O)c1cccc(C(=O)OC(C#N)(C(F)(F)F)C(F)(F)F)c1Sc1ccccc1)(C(F)(F)F)C(F)(F)F`, for which the survivor count (dose: 200.0 mg/kg/injection, schedule: Q04DX002 (ip), vehicle: Klucel (hydroxypropylcellulose) (HPC)) was 1 of 6.
As to `CC[CH2][Sn]([CH2]CC)([CH2]CC)[CH2]CCBr`, under setting [1], the survivor count is recorded as 1 of 6.
